The values that follow come from article doi:10.1101/2025.02.23.639735 (bioRxiv, 2025).

These are yes or no findings as the source states them, for the method shown. Some results given as binding are weak or reduced against the parent protein; the word gives no strength.

In this experiment the target is T1, UPF2-AL (human, UniProt Q9HAU5 1015-1106, 15N-labelled (15N/13C for the assignments) in the NMR experiments).
T1 sequence (looked up): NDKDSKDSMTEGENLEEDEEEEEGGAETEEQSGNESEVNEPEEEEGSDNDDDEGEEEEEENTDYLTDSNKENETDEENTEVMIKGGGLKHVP
The experiment in a line: NMR titration.

B1: 3’hExofl (enzyme, UniProt Q8IV48 1-349)
chain: MEDPQSKEPAGEAVALALLESPRPEGGEEPPRPSPEETQQCKFDGQETKGSKFITSSASDFSDPVYKEIAITNGCINRMSKEELRAKLSEFKLETRGVKDVLKKRLKNYYKKQKLMLKESNFADSYYDYICIIDFEATCEEGNPPEFVHEIIEFPVVLLNTHTLEIEDTFQQYVRPEINTQLSDFCISLTGITQDQVDRADTFPQVLKKVIDWMKLKELGTKYKYSLLTDGSWDMSKFLNIQCQLSRLKYPPFAKKWINIRKSYGNFYKVPRSQTKLTIMLEKLGMDYDGRPHCGLDDSKNIARIAVRMLQDGCELRINEKMHAGQLMSVSSSLPIEGTPPPQMPHFRK
For the molecule B1, the binding result is on record as “binds weakly”.
